Screen size: about 390,000 compounds; about 760 (0.19%) were called active. This list was built around the results that the source calls inconclusive (neither active nor inactive); the mix of calls is not that of the screen. Calls follow the shape of the dose curve; as a rule, active = well fitted inhibition curve with a large enough effect; inconclusive = small, poorly fitted or top-dose-only effect; inactive = flat fitted curve, though single readings scatter. A potency beside an inconclusive call is a rough fit, not a confirmed value.
assay: qHTS for Inhibitors of Vif-A3F Interactions: qHTS; details: HeLa A3F-eYFP + Vif (tagged APOBEC3F with the HIV-1 protein that degrades it), YFP fluorescence increase; series mostly up to 46.1 µM; activity, negative = active: at the top concentration; also: nearly all actives have a fitted effect of over 65% in size; as to activity, negative = active: % of control where 0% means no effect
Procedure, shortened: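 HeLa cells stably expressing A3F-eYFP plus Vif, plated and incubated overnight at 37 deg C, then exposed to compounds overnight at 37 deg C. Blocked degradation read as raised yellow fluorescence (Ex 488/Em 500-530).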
Potency is read from the fitted curve at half-maximal effect.

SMILES | Potency | activity, negative = active
COc1ccc(N(C(=O)c2snc(C(N)=O)c2N)C(C(=O)NC2CCCC2)c2ccco2)c(OC)c1 (stereo not given) | inconclusive: 25.1 µM [inhibitor, single point] | 
O=[N+]([O-])c1ccc(N/N=C/C=C/c2ccco2)cc1 | active: 11.2 µM | 
COc1cccc(NC(=O)/C(C#N)=C/c2ccc(-c3ccc(C)cc3)o2)c1 | inconclusive: 10 µM [inhibitor, partial curve, poor fit] | 
COc1ccc(OC)c(NC(=O)CCCN2C(=S)NC(C)(C)CC2C)c1 (stereo not given) | inconclusive: 35.5 µM [inhibitor, single point] | 
O=[N+]([O-])c1ccc(-c2nc(-c3cccs3)c(-c3cccs3)[nH]2)cc1 | inconclusive: 17.8 µM [inhibitor, partial curve, poor fit] | 
C=CCSc1nnc(NC(=O)c2c(CC)noc2C)s1 | inconclusive: 5.62 µM [inhibitor, single point] | 
CCOc1ccc(C(=O)NC2C(=O)N3C(C(=O)O)=C(COC(C)=O)CSC23)cc1OCC (stereo not given) |  | inactive: -28.3%
COc1ccc(Cl)cc1NC(=S)NCc1ccccn1 | inconclusive: 25.1 µM [inhibitor, partial curve, poor fit] | 
Cc1ccc(-c2nn(-c3ccccc3)cc2C(=O)N2CCN(c3ccccn3)CC2)cc1 | inconclusive: 22.4 µM [inhibitor, single point] | 
CC(C)C1Nc2ccc(C(=O)O)cc2C2C=CCC21 (stereo not given) | inconclusive: 3.16 µM [inhibitor, single point] | 
CCC(C)Sc1ccc([C@@H]2[C@H]3C(=O)N(CC)C(=O)[C@H]3[C@]3(C(=O)OC)CCCCN23)cc1 (stereo not given in full) | inconclusive: 28.2 µM [inhibitor, single point] | 
CCn1c(N)c(C(=O)NCC2CCCO2)sc1=S (stereo not given) |  | inactive: -3.97%
N#Cc1ccccc1NC(=S)Nc1ccc(F)cc1 | inconclusive: 10 µM [inhibitor, partial curve, poor fit] | 
Cc1ccc(C)c(Nc2nc3ccccc3[nH]2)c1 |  | inactive: 1.5%
CCOc1ccc(NC(=S)NCCCn2ccnc2)cc1 |  | inactive: -11%
O=c1cc(-c2ccc(O)c(O)c2)oc2ccc3ccccc3c12 | inconclusive: 10 µM [inhibitor, partial curve, poor fit] | 
COc1cccc(N=Cc2c(O)n(-c3cccc(C)n3)c(=O)c3ccccc23)c1 |  | inactive: 3.13%
COc1ccc(F)c(CN2CCC(CO)(Cc3cccc(C(F)(F)F)c3)CC2)c1 | inconclusive: 10 µM [inhibitor, single point] | 
N#CC1=C(N)C(C#N)(C#N)C2(C(=O)Nc3ccccc32)C2CCCC=C12 (stereo not given) |  | inactive: -6.11%
COc1ccc(/C=N/OCC(=O)Nc2ccc3c(c2)OCO3)c(OC)c1 | inconclusive: 11.2 µM [inhibitor, partial curve, poor fit] | 
COc1cccc(-c2nc(SCc3cccc(Br)c3)n3[nH]c(=O)cc3n2)c1 |  | inactive: -1.48%
O=C(N=Nc1c(O)[nH]c2ccccc12)Nc1ccccc1 |  | inactive: 2.38%

SMILES | Potency | activity, negative = active
O=C(Nc1nc2c(F)cc(F)cc2s1)C1CCN(C(=O)c2ccc(F)cc2)CC1 | inconclusive: 35.5 µM [inhibitor, single point] | 
Cc1nn(Cc2ccc(Cl)cc2)c(C)c1NC(=O)c1cc(-c2ccco2)on1 | inconclusive: 35.5 µM [inhibitor, single point] | 
Cc1ccc(N(CC(O)Cn2c3ccccc3c3ccccc32)S(=O)(=O)c2ccc(F)cc2)cc1 (stereo not given) | inconclusive: 20 µM [inhibitor, single point] | 
Cc1ccc(S(=O)(=O)N(C)C)cc1NC(=O)COc1cccc(-n2cnnn2)c1 | inconclusive: 22.4 µM [inhibitor, single point] | 
COc1cc(/C=C2\SC(=Nc3ccc(O)cc3)NC2=O)cc(OC)c1O | inconclusive: 6.31 µM [inhibitor, single point] | 
O=C(NCc1cccs1)C1CC(c2ccc(Cl)c(Cl)c2)=NO1 (stereo not given) |  | inactive: -13.8%
CCCNC(=O)Cn1nc(-c2ccc(C)c(C)c2)c2cnc3ccc(OC)cc3c21 | inconclusive: 6.31 µM [inhibitor, single point] | 
CCC1(C)CC(=O)N(c2ccc(F)c(Cl)c2)C(=O)C1 | inconclusive: 22.4 µM [inhibitor, single point] | 
Cc1ccc(C(C)C)cc1OCC(=O)Nc1ccc(N2CCCCC2)cc1 | inconclusive: 6.31 µM [inhibitor, single point] | 
COc1ccc(CCC(=O)N2CCCC(Nc3ccc(OC)cc3)C2)cc1 (stereo not given) | inconclusive: 3.16 µM [inhibitor, partial curve, poor fit] | 
C[n+]1cc(C(=O)N2CCCCC2)ccc1/C=C/c1c[nH]c2ccccc12 | inconclusive: 15.8 µM [inhibitor, partial curve, poor fit] | 
Cc1ccc(S(=O)(=O)/N=C2\C=C(Nc3ccc(O)cc3)C(=O)c3ccccc32)cc1 |  | inactive: 7.08%
Cc1ccc2nc(NC(=O)c3ccc(N4C(=O)CCC4=O)cc3)sc2c1 | inconclusive: 3.55 µM [inhibitor, partial curve, poor fit] | 
Cc1oc2ccc(O)c(CN3CCOCC3)c2c1C(=O)c1ccc(Cl)cc1 | inconclusive: 5.62 µM [inhibitor, single point] | 
CC(NC(=O)CSc1cccc(C(F)(F)F)c1)c1ccccc1 (stereo not given) | inconclusive: 5.62 µM [inhibitor, single point] | 
CCN(C(=O)COC(=O)Cc1coc2cc(C)ccc12)c1c(N)n(Cc2ccccc2)c(=O)[nH]c1=O | inconclusive: 2.82 µM [inhibitor, partial curve, poor fit] | 
O=C(Cc1ccc(O)cc1)NCCNC(=S)NCc1ccccc1 | inconclusive: 11.2 µM [inhibitor, single point] | 
CCOc1ccccc1OCCCC(=O)OCC(=O)Nc1cccc(Cl)c1 | inconclusive: 35.5 µM [inhibitor, single point] | 
CCOC(=O)c1cnc2c(ccc3ccccc32)c1NCCCN(C)C | inconclusive: 35.5 µM [inhibitor, single point] | 
C(=NN1CCCCCC1)c1ccc2ccccc2n1 | inconclusive: 2.82 µM [inhibitor, partial curve, poor fit] | 
O=C(NCCC(=O)N(Cc1ccco1)Cc1cccs1)c1ccc([N+](=O)[O-])cc1 | inconclusive: 22.4 µM [inhibitor, single point] | 
Cc1cccc(NC(=O)COc2ccc(-c3nn(C)c(=O)c4ccccc34)cc2)c1 | inactive | 

SMILES | Potency | activity, negative = active
COCCCn1c(=NC(C)=O)c(C#N)cc2c(=O)n3cccc(C)c3nc21 | inconclusive: 35.5 µM [inhibitor, single point] | 
COc1ccc(N=c2oc3cc(O)ccc3cc2C(=O)Nc2ccccn2)cc1OC | inconclusive: 11.2 µM [inhibitor, partial curve, poor fit] | 
N#C/C(=C/c1ccco1)c1nc2ccccc2s1 | inconclusive: 20 µM [inhibitor, partial curve, poor fit] | 
COc1ccc(-n2c(C)nn(C)c2=O)cc1 | inconclusive: 35.5 µM [inhibitor, single point] | 
CCN(C(=O)C(C)Cl)c1ccccc1 (stereo not given) | inconclusive: 5.62 µM [inhibitor, single point] | 
C=CCc1c(C)nc(-c2ccccc2)nc1N/N=C/c1ccccc1 | inconclusive: 35.5 µM [inhibitor, single point] | 
N=C1/C(=C\c2coc3ccccc3c2=O)C(=O)N=C2SC=CN12 | inconclusive: 11.2 µM [inhibitor, partial curve, poor fit] | 
Cc1ccc2nc(Nc3ccc(C)c(F)c3)c3nncn3c2c1 | inconclusive: 35.5 µM [inhibitor, single point] | 
O=C(CSc1ccccc1)N1CCCC(Nc2ccccc2)C1 (stereo not given) |  | inactive: 0.0975%
N#CC1=C(N)C2=CCCC[C@H]2[C@H](c2ccc(Br)cc2)C1(C#N)C#N | inconclusive: 17.8 µM [inhibitor, single point] | 
C=CC[C@@H](CC(=O)N(CCO)Cc1ccccc1)C(=O)N[C@@H](COC(=O)[C@H](CC=C)CC(=O)OC(C)(C)C)Cc1c[nH]c2ccccc12 |  | inactive: 2.39%
COc1ccc(S(=O)(=O)N(C)c2ccc(C(=O)N3CCCCC3)cc2)cc1OC | inconclusive: 6.31 µM [inhibitor, single point] | 
O=C(NC(=S)N1CCN(c2ccc(F)cc2)CC1)c1cccs1 | inconclusive: 3.55 µM [inhibitor, single point] | 
COc1ccc(NC(=O)c2cccc3c2C(=O)c2ccc(-c4ccc(F)cc4OCc4ccccc4)cc2S3(=O)=O)cc1 | inconclusive: 20 µM [inhibitor, single point] | 
Cc1cc(C)cc(NS(=O)(=O)c2ccc3[nH]cc(C(=O)NC4CCCCC4)c(=O)c3c2)c1 |  | inactive: 1.93%
Cc1ccc(NC(=O)Cn2c(O)c(N=NC(N)=O)c3ccccc32)cc1 | inconclusive: 35.5 µM [inhibitor, single point] | 
COc1ccc(-c2n[nH]c(=S)n2-c2ccccc2C)cc1 | inconclusive: 35.5 µM [inhibitor, single point] | 
O=c1cc(-c2ccc(O)cc2)oc2c1ccc1ccccc12 | inconclusive: 35.5 µM [inhibitor, single point] | 
CCCCOc1c(Br)cc(/C=C2\N=C(C)OC2=O)cc1OCC |  | inactive: -6.12%
Cc1ccc2c(c1)c(/C=C/c1cc[n+](C)cc1)c(C)n2C |  | inactive: -90.7%
CC(=O)Nc1ccc(S(=O)(=O)Nc2nc3ccccc3nc2-n2ccc(=NC(=O)c3ccc(F)cc3)cc2)cc1 | inconclusive: 35.5 µM [inhibitor, single point] | 

Given with each value named: part of the list above
Cc1ccc2nc(Nc3ccc(C)c(F)c3)c3nncn3c2c1
  Potency: inconclusive: 35.5 µM [inhibitor, single point]
C=CC[C@@H](CC(=O)N(CCO)Cc1ccccc1)C(=O)N[C@@H](COC(=O)[C@H](CC=C)CC(=O)OC(C)(C)C)Cc1c[nH]c2ccccc12
  activity, negative = active: inactive: 2.39%
COc1ccc(NC(=O)c2cccc3c2C(=O)c2ccc(-c4ccc(F)cc4OCc4ccccc4)cc2S3(=O)=O)cc1
  Potency: inconclusive: 20 µM [inhibitor, single point]
CCCCOc1c(Br)cc(/C=C2\N=C(C)OC2=O)cc1OCC
  activity, negative = active: inactive: -6.12%
